# From PubChem BioAssay AID493014 (National Center for Advancing Translational Sciences (NCATS), 2011)
# This is one part of the list. Shown are side measurements of this screen, not its main read-out; they come without a call. Most of these compounds were active or inconclusive in the main read-out, so they are no random draw. The note in brackets gives the kind of curve behind each potency; many fits are weak.
# Assay: qHTS Assay to Find Inhibitors of Chronic Active B-Cell Receptor Signaling
# Conditions: ABC-DLBCL IkBa-CBG/CBR reporter, luminescence ratio (green luciferase fused to IkBa over red control in TMD8 lymphoma cells), 4 h
# How it was run: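 TMD8 ABC-DLBCL cells carrying doxycycline-inducible green luciferase fused to IkappaBalpha plus unfused red luciferase were exposed to compounds (up to 46 uM) for 4 hrs at 37C. Activity came from the overlap-corrected green/red luminescence ratio.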
# [1] = measured here: CBR red luminescence, cell number
# [2] = measured here: IkBa-CBG green luminescence
Compound,AC50 [1],AC50 [2]
Cc1nnc2ccc(-c3ccc(NS(=O)(=O)c4ccc(F)cc4F)cc3)nn12,"14.6 µM [rising, partial curve]","16.4 µM [falling, partial curve, poor fit]"
Cn1ccnc1Sc1ccc(/C=N/NC(=O)c2ccccc2O)cc1[N+](=O)[O-],"16.4 µM [falling, partial curve]",
CSCCC(NC(N)=O)C(=O)NCc1cccc(Cl)c1 (stereo not drawn),"2.06 µM [rising, partial curve, poor fit]",
Cc1ccc(NC(=O)CSc2nnc(-c3n[nH]c4ccccc34)n2-c2ccccc2)c(C)c1,"13 µM [falling, partial curve]","14.6 µM [rising, partial curve, poor fit]"
Cc1cc(NS(=O)(=O)c2ccc(NC(=O)CCCOc3cccc(C)c3C)cc2)no1,"15.8 µM [falling, partial curve, poor fit]",
COc1ccc(C2=Nn3c(nnc3-c3ccccn3)SC2)cc1OC,"35.5 µM [rising, single point]","14.1 µM [falling, partial curve]"
CCCCC1(C(=O)OC)NC(c2ccc(O)cc2)C2C(=O)N(c3ccccc3)C(=O)C21 (stereo not drawn),"35.5 µM [rising, partial curve, poor fit]",
CN1C(=O)c2cccc(NCCCN3C(=O)c4ccccc4C3=O)c2C1=O,"29.1 µM [rising, single point]",
COC(=O)c1sc2nc(SCC(=O)N(C)c3ccccc3)n(N)c(=O)c2c1C,"2.51 µM [rising, partial curve, poor fit]",
COc1ccc(/C(N)=N/OC(=O)/C=C/c2ccccc2)cc1,"35.5 µM [rising, partial curve, poor fit]",
Cc1ccc(S(=O)(=O)N2CCN(C(=O)C3CCCCC3)CC2)cc1,"35.5 µM [falling, single point]",
COc1ccc(-c2ccnc3c(C#N)cnn23)cc1,"2.51 µM [rising, partial curve, poor fit]",
CCn1c(C(=O)OC)cc2c1ccn2-c1ccc(F)cc1,"6.51 µM [falling, single point]",
CC(=O)c1cc(CN2CCN(Cc3ccccc3)C(CCO)C2)cs1 (stereo not drawn),"0.631 µM [falling, partial curve, poor fit]",
Cc1ccc(C)c(Sc2ccc(S(=O)(=O)Nc3ccc(C(=O)O)cc3)cc2)c1,"16.4 µM [rising, single point]",
CCN(CC)S(=O)(=O)c1cc(C)c(C)cc1Br,"16.4 µM [rising, partial curve]",
CCCCn1c(=O)cc(N2CCOCC2)[nH]c1=O,"0.0231 µM [rising, full curve, poor fit]",
CCn1c(=O)c(C(=O)Nc2ccsc2C(=O)OC)c(O)c2ccccc21,"0.116 µM [falling, full curve]",
CCOc1ccccc1N(C(=O)Nc1cccc(Cl)c1)C1=NC(C)CS1 (stereo not drawn),"25.9 µM [rising, single point]",
CCCOc1ccc(CCN2CCC(=O)NC2=O)cc1C,"14.1 µM [rising, partial curve, poor fit]",
COc1cccc(C2NC(=O)NC(C)=C2C(=O)Nc2ccc(C)cc2)c1OC (stereo not drawn),"25.1 µM [falling, single point]",

Compound,AC50 [1],AC50 [2]
CCCN(CCC)S(=O)(=O)c1ccc(NS(C)(=O)=O)cc1,"8.2 µM [rising, partial curve, poor fit]",
CC(=O)c1cccc(S(=O)(=O)N2CCC(C(=O)Oc3ccc(-c4nnco4)cc3)CC2)c1,"6.51 µM [falling, partial curve]",
CN(C)S(=O)(=O)NCc1ccc2c(c1)OCO2,"0.731 µM [falling, partial curve, poor fit]",
C/C(=N\S(=O)(=O)c1ccc(C)cc1)N1CCCCC1,"17.8 µM [rising, single point]",
Cc1cccc(NC(=O)c2ccc(C(=O)Nc3cccc(C)c3)nc2)c1,,"5.8 µM [falling, full curve]"
CC12CCC(C(=O)NNc3ccc([N+](=O)[O-])cc3)(OC1=O)C2(C)C (stereo not drawn),"2.24 µM [rising, partial curve, poor fit]",
CCn1nc(C(=O)Nc2cccc(C(F)(F)F)c2)c(Cl)c1Cl,"2.51 µM [rising, partial curve, poor fit]",
O=C(NCc1cccnc1)Nc1ccc(Br)cc1,"0.794 µM [rising, full curve, poor fit]",
O=C(COC(=O)c1ccc(Cl)nc1)Nc1nnc(-c2ccccc2)o1,"14.6 µM [falling, partial curve]",
O=C(N/N=C/c1ccc(O)cc1)c1cccc(N/N=C/c2ccc(O)cc2)c1,"7.94 µM [falling, partial curve, poor fit]",
Cc1c(Cl)cccc1NC(=O)CNC(=O)C1CCN(C(=O)Nc2ccccc2)CC1,"29.1 µM [rising, single point]",
Oc1ccc2[nH]cnc2c1CN1CCCCC1,"0.517 µM [falling, full curve, poor fit]",
O=C(Nc1cccn(Cc2c(F)cccc2Cl)c1=O)NC1CCCCC1,"3.98 µM [falling, single point]",
CCOC(=O)C1=C(N)N2C(=O)CSC2=C(C(=O)OC)C1,"2.51 µM [falling, full curve, poor fit]",
COc1ccccc1C(=O)Nc1nnc(-c2ccc(F)cc2)s1,"8.91 µM [falling, partial curve]",
CC1(C)Cc2cccc(C(=O)Nc3ccc(Cl)cc3)c2O1,"1.26 µM [rising, full curve]",
CC1=Nc2ccccc2/C1=C\c1sc(Nc2ccc(C)cc2)nc1O,,"4.11 µM [falling, partial curve, poor fit]"
COc1ccccc1/C=N\Nc1cn[nH]c(=O)c1Cl,"11.2 µM [falling, partial curve]",
Cc1ccc(SCC(=O)Nc2cc([N+](=O)[O-])ccc2O)cc1,"1.26 µM [falling, full curve, poor fit]",
Fc1ccc(CSc2ccc(-c3cccs3)nn2)cc1,"0.411 µM [rising, full curve, poor fit]",
Cc1ccc(OCC(=O)Nc2ccc(C)c(S(=O)(=O)N3CCCCC3)c2)c([N+](=O)[O-])n1,"4.11 µM [rising, full curve, poor fit]",

# A draw from above in order of SMILES length, rising.
Compound,AC50 [1],AC50 [2]
CCCOc1ccc(CCN2CCC(=O)NC2=O)cc1C,"14.1 µM [rising, partial curve, poor fit]",
Cc1ccc(SCC(=O)Nc2cc([N+](=O)[O-])ccc2O)cc1,"1.26 µM [falling, full curve, poor fit]",
Cc1ccc(C)c(Sc2ccc(S(=O)(=O)Nc3ccc(C(=O)O)cc3)cc2)c1,"16.4 µM [rising, single point]",

# Remaining list, next part:

Compound,AC50 [1],AC50 [2]
O=C(COc1ccccc1)N1CCN(C(=O)c2ccc([N+](=O)[O-])cc2)CC1,"12.6 µM [falling, partial curve]",
CCOC(=O)C1=C(CS(=O)(=O)c2ccc(C)cc2)NC(=O)NC1c1ccc(O)c(OC)c1 (stereo not drawn),"10 µM [rising, partial curve, poor fit]",
CCOCCCNc1nc2c(C)cccn2c(=O)c1/C=C1\SC(=S)N(C(C)CC)C1=O (stereo not drawn),"0.224 µM [rising, full curve]",
Cc1ccc(C2(CCN)CCOC(C(C)C)C2)cc1 (stereo not drawn),"29.1 µM [falling, single point]",
O=C(CSc1nnnn1C1CCCCC1)N1CCN(C(=O)c2ccco2)CC1,"7.08 µM [falling, partial curve, poor fit]",
COc1ccc(S(=O)(=O)N2CCCC2CNC(=O)C(=O)Nc2ccc(C)cc2)cc1 (stereo not drawn),"16.4 µM [falling, partial curve, poor fit]",
Cc1ccc(C#CC[N+](C)(C)CC#Cc2ccccc2)cc1,"35.5 µM [falling, single point]","14.1 µM [rising, partial curve, poor fit]"
Clc1cccc(-c2nnc(SC/C=C/c3ccccc3)n2Cc2ccco2)c1,"18.4 µM [falling, single point]",
O=S(=O)(NCCc1c[nH]c2ccccc12)c1ccccc1,"5.62 µM [rising, full curve, poor fit]",
CSc1nc2ccc(Br)cc2[nH]1,"0.631 µM [rising, full curve]",
O=C(CSc1nnc(NCc2ccccc2)s1)c1ccco1,"2.24 µM [rising, partial curve, poor fit]",
CCN1CCN(CC(=O)Nc2cc3c(cc2C(C)=O)OCO3)CC1,"14.1 µM [rising, partial curve, poor fit]",
CN1/C(=C\C(=O)Nc2ccc(Cl)cc2)C(C)(C)c2ccccc21,"32.6 µM [falling, single point]","16.4 µM [rising, partial curve, poor fit]"
CC[C@]12c3[nH]c4ccc(Cl)cc4c3CCN1C(=O)[C@@H](CC(=O)NC/C=C(\C)CCC=C(C)C)C[C@@H]2C(=O)N1CCN(C(=O)c2ccco2)CC1,"7.31 µM [falling, partial curve]",
COCCn1c(C)cc(C(=O)CSc2nc(C)cc(C)c2C#N)c1C,"6.51 µM [rising, single point]",
CSCCC(NC(=O)c1cccc(S(=O)(=O)N2CCOCC2)c1)c1nc2ccccc2[nH]1 (stereo not drawn),"29.1 µM [rising, single point]",
CN1CCC(=NNC(=O)c2ccco2)CC1,"35.5 µM [falling, single point]",
O=C(CSc1nnc(Cc2ccccc2)n1C1CCCCC1)N1CCOCC1,"29.1 µM [falling, single point]",
N=c1c(C(=O)NCCc2ccccc2)cc2c(=O)n3ccccc3nc2n1CC1CCCO1 (stereo not drawn),"14.1 µM [falling, partial curve]",
CCOc1cccc(N)c1,"9.2 µM [falling, partial curve]","9.2 µM [rising, partial curve, poor fit]"
